Results taken from article PMC3499479.

Amino acid sequences for entries named in this document (tags omitted). A change or cut given only in a name is not applied to a line headed by its entry.
UniProt A8MQG7: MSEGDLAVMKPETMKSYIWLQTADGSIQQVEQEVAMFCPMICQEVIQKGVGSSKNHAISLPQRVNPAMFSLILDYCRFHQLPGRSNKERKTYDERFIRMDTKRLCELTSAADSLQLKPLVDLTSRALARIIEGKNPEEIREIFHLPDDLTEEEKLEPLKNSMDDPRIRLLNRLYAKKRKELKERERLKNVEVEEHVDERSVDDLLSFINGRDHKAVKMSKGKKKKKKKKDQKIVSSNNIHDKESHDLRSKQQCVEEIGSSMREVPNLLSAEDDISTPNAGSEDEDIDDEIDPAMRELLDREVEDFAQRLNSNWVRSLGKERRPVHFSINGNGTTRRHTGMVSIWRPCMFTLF

How the values were obtained:
Assay in all cases: split reporter; FBX in pSCYCE (SCFP3A 174-328), ASK in pSCYNE (SCFP3A 1-173), CaMV 35S promoter; Agrobacterium GV3101 infiltrated into Nicotiana tabacum leaves, 28 C for 3 days; fluorescence microscopy
[1] = target: T1, F-box (FBX) protein At1g30790, BiFC fusion (Arabidopsis thaliana) (UniProt Q9SY20)
T1 sequence: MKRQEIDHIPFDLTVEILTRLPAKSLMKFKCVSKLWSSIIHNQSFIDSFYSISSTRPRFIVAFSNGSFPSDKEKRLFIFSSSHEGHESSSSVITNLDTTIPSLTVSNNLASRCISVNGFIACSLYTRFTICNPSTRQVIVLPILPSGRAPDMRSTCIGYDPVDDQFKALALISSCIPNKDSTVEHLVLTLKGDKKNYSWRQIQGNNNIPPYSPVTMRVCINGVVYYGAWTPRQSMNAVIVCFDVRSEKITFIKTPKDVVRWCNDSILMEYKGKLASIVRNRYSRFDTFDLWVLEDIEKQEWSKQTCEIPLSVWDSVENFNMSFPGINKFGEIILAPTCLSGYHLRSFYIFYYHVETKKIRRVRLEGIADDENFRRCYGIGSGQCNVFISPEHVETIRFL

[2] = target: T2, F-box (FBX) protein At3g03360, BiFC fusion (Arabidopsis thaliana) (UniProt Q84W80)
T2 sequence: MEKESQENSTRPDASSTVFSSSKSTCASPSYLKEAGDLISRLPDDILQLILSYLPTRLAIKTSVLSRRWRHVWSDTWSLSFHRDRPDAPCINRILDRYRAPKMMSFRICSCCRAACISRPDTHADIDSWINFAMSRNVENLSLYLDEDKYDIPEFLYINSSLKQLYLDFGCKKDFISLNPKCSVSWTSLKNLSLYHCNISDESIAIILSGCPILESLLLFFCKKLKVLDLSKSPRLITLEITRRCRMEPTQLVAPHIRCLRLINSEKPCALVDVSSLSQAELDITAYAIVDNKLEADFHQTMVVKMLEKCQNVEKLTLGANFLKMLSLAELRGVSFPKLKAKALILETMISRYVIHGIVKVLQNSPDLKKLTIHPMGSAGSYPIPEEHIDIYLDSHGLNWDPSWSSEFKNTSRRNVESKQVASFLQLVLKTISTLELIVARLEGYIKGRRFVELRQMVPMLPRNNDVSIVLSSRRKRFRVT

[3] = target: T3, F-box (FBX) protein At3g04660, BiFC fusion (Arabidopsis thaliana) (UniProt Q9SR08)
T3 sequence: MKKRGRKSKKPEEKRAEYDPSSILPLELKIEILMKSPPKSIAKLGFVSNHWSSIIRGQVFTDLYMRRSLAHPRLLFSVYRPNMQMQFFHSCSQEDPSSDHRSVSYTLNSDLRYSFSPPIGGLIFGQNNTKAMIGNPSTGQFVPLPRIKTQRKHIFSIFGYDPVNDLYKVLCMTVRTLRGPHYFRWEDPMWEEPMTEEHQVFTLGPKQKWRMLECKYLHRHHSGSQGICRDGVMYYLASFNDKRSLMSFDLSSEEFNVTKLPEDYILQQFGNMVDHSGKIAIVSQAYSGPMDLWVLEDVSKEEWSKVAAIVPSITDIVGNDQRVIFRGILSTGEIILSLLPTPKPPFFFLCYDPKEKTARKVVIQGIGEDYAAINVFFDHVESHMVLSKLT

[4] = target: T4, F-box (FBX) protein At5g21040, BiFC fusion (Arabidopsis thaliana) (UniProt Q94AD8)
T4 sequence: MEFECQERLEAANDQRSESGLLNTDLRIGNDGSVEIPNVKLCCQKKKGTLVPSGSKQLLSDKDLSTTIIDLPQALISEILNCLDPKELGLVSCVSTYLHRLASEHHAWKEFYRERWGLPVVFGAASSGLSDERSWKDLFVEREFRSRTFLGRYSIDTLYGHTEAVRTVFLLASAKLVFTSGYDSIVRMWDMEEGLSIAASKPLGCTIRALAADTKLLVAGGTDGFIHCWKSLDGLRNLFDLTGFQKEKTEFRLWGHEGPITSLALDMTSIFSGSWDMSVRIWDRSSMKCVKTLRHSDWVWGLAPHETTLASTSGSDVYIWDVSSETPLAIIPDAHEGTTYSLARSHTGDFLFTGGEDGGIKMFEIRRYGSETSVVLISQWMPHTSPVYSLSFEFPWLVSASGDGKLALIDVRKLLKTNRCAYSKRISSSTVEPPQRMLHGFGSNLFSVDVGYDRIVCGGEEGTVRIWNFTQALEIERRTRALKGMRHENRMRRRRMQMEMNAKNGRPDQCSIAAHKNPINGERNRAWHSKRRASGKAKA

Measured: binding

Arabidopsis SKP1-LIKE 8 (ASK8), BiFC fusion
binds: [1] | [2] | [3]

Arabidopsis SKP1-LIKE 7 (ASK7), BiFC fusion
binds: [2] | [4]

Arabidopsis SKP1-LIKE 20A (ASK20A), BiFC fusion (from UniProt A8MQG7)
binds: all assays above

Arabidopsis SKP1-LIKE 5 (ASK5), BiFC fusion
binds: all assays above

Arabidopsis SKP1-LIKE 20B (ASK20B), BiFC fusion (from UniProt A8MQG7)
binds: all assays above

Results are given in words; binding and its absence hold for the method and conditions named. Binding seen in cells or lysates may run through a third protein. Binding calls can cover weak binding; strength is not graded here. Tags and fused reporters may be left off the sequences shown.
